The values that follow come from article PMC9065181.

Amino acid sequences for entries named in this document (tags omitted).
UniProt P17182: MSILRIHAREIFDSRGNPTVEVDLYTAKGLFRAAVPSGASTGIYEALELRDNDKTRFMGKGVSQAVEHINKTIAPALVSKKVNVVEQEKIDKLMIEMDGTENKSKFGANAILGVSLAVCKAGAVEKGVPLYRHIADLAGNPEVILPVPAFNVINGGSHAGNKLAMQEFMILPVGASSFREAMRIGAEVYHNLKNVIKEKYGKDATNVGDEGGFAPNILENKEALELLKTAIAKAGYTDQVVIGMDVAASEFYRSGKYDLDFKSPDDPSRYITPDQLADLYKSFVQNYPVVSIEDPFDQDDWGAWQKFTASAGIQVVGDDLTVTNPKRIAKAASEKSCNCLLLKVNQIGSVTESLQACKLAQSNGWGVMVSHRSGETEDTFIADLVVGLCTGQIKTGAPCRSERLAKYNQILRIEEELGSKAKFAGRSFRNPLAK

For the assay, the target named is enolase 1 (mouse (endogenous in 4T1.2)) (UniProt P17182). As to the kind of experiment: co-IP; protein extracts from 4T1.2 cells, precleared with protein A agarose beads and rabbit IgG; overnight immunoprecipitation with beads conjugated with anti-Eno1 antibodies; washed three times with PBS; Western blot for Eno1 and CD44.

No constants are given. Whether binding was seen depends on the method and setting. Binding seen in cells or lysates may run through a third protein. Some binding calls cover weakened binding; strength is not graded here.

B1: CD44 (receptor, UniProt P15379 23-778)
chain: QIDLNVTCRYAGVFHVEKNGRYSISRTEAADLCQAFNSTLPTMDQMKLALSKGFETCRYGFIEGNVVIPRIHPNAICAANHTGVYILVTSNTSHYDTYCFNASAPPEEDCTSVTDLPNSFDGPVTITIVNRDGTRYSKKGEYRTHQEDIDASNIIDDDVSSGSTIEKSTPEGYILHTYLPTEQPTGDQDDSFFIRSTLATIASTVHSKSHAAAQKQNNWIWSWFGNSQSTTQTQEPTTSATTALMTTPETPPKRQEAQNWFSWLFQPSESKSHLHTTTKMPGTESNTNPTGWEPNEENEDETDTYPSFSGSGIDDDEDFISSTIATTPRVSARTEDNQDWTQWKPNHSNPEVLLQTTTRMADIDRISTSAHGENWTPEPQPPFNNHEYQDEEETPHATSTTPNSTAEAAATQQETWFQNGWQGKNPPTPSEDSHVTEGTTASAHNNHPSQRITTQSQEDVSWTDFFDPISHPMGQGHQTESKDTDSSHSTTLQPTAAPNTHLVEDLNRTGPLSVTTPQSHSQNFSTLHGEPEEDENYPTTSILPSSTKSSAKDARRGGSLPTDTTTSVEGYTFQYPDTMENGTLFPVTPAKTEVFGETEVTLATDSNVNVDGSLPGDRDSSKDSRGSSRTVTHGSELAGHSSANQDSGVTTTSGPMRRPQIPEWLIILASLLALALILAVCIAVNSRRRCGQKKKLVINGGNGTVEDRKPSELNGEASKSQEMVHLVNKEPSETPDQCMTADETRNLQSVDMKIGV
With B1, the binding entry was “binds”.
